Measured values published in PubChem BioAssay AID493014 (National Center for Advancing Translational Sciences (NCATS), 2011).
“And” between values parts separate entries of the source, which are not always exact repeats. Equal values may be shown once. The list shows a part of the results. The main result of the screen is listed elsewhere. These columns were measured beside it and carry no call. Compounds called inactive in the main read-out are mostly missing here. Words in brackets tell the shape of the fitted curve; partial curves, single points and poor fits give uncertain potencies.

Assay: qHTS Assay to Find Inhibitors of Chronic Active B-Cell Receptor Signaling
Conditions: ABC-DLBCL IkBa-CBG/CBR reporter, luminescence ratio (green luciferase fused to IkBa over red control in TMD8 lymphoma cells), 4 h
In short: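 Cell line TMD8 (human ABC DLBCL), stably expressing tet-inducible CBG68-IkBa fusion and CBR; IMDM/0.5% FBS; cpd up to 46 uM; dox induction, 4 h, 37C/5% CO2; dual luminescence; green/red ratio; MG132 control.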

[1] = measured here: CBR red luminescence, cell number

| Structure (SMILES) | AC50 (measured here: IkBa-CBG green luminescence) | AC50 [1] |
| --- | --- | --- |
| COc1cc(OC)c2c(-c3cccc(-c4ccoc4)c3)cc(=O)oc2c1 | 29.1 µM [falling, partial curve, poor fit] |  |
| Cc1nn(CC(=O)O)c(=O)c2ccccc12 |  | 2.31 µM [rising, partial curve, poor fit] |
| COCc1cc(C)nc(OCC(=O)N/N=C/c2ccc(-c3cc([N+](=O)[O-])ccc3C)o2)c1C#N |  | 0.092 µM [rising, full curve, poor fit] |
| Fc1ccc(/C=N/NC(=S)Nc2ccc(Cl)cc2)cc1F |  | 29.1 µM [rising, single point] |
| C=CCNC(=O)c1onc(CSc2ccccc2)c1C(=O)O |  | 11.2 µM [falling, partial curve] |
| CCSc1nnc(CSc2ncccn2)n1C |  | 0.562 µM [rising, full curve, poor fit] |
| COC(=O)c1sccc1NC(=O)Nc1ccc(C)cc1 |  | 0.794 µM [falling, full curve] |
| COc1c(C(=O)Nc2ccc(Cc3ccncc3)cc2)ccc2ccccc12 |  | 16.4 µM [falling, partial curve] |
| O=C(Nc1cccc(S(=O)(=O)N2CCCC2)c1)c1cc(=O)[nH]c2ccccc12 |  | 23.1 µM [rising, partial curve] |
| COC(=O)c1ccc(NC(=O)CCNS(=O)(=O)c2cccc3nonc23)cc1 |  | 3.26 µM [rising, single point] |
| Cc1cc(C(=O)Nc2cnc3ccccc3c2)ccc1[N+](=O)[O-] |  | 0.355 µM [rising, full curve, poor fit] |
| c1cnc(N2CCN(Cc3c[nH]c4ccccc34)CC2)nc1 |  | 25.1 µM [rising, single point] |
| CCOC(=O)C1=C(CCc2ccccc2)NC(=O)NC1c1ccc2ccccc2c1 (stereo not given) |  | 11.2 µM [falling, partial curve] |
| C=CCn1c(O)c(N=Nc2ccccc2)c2ccccc21 |  | 7.08 µM [rising, full curve, poor fit] |
| CCOc1cc2c3c(c1)C(C)=CC(C)(C)N3C(=O)C2=O |  | 8.91 µM [rising, partial curve, poor fit] |
| COc1ccc(NC(=O)COC(=O)[C@@H]2CCCN2S(=O)(=O)c2ccccc2F)c(OC)c1 |  | 3.55 µM [rising, partial curve] |
| Cc1cc(-c2nc3ccccc3[nH]2)ccc1N |  | 12.6 µM [falling, partial curve, poor fit] |
| Fc1ccc(CSc2nc3ccccc3[nH]2)cc1 |  | 0.146 µM [rising, full curve, poor fit] |
| Cc1c(NC2=C(Cl)C(=O)N(c3ccccc3)C2=O)c(=O)n(-c2ccccc2)n1C |  | 23.1 µM [falling, single point] |
| Cc1ccc(N(C(=O)c2ccccn2)C2(C(=O)NC3CCCC3)CCCCC2)cc1 |  | 0.411 µM [rising, partial curve, poor fit] |
| CCn1cc(Cl)c(C(=O)Nc2ccccc2C(N)=O)n1 |  | 7.94 µM [rising, partial curve, poor fit] |
| Cc1[nH]oc(=O)c1N=Nc1c(Cl)cccc1Cl |  | 4.61 µM [rising, full curve, poor fit] |

| Structure (SMILES) | AC50 (measured here: IkBa-CBG green luminescence) | AC50 [1] |
| --- | --- | --- |
| CN1N=C2c3ccccc3CCC2C1c1ccc(Cl)cc1 (stereo not given) |  | 11.2 µM [rising, partial curve] |
| COc1ccc(-c2cc3ncnc(Cl)c3s2)cc1 |  | 35.5 µM [falling, single point] |
| COc1cccc(CNCCc2c[nH]c3ccccc23)c1OCc1ccccc1 |  | 29.1 µM [falling, single point] |
| Cc1ccc(-c2nnc(Sc3nc4ccccc4o3)c3ccccc23)cc1 |  | 2.82 µM [falling, full curve, poor fit] |
| O=C(CSC1=Nc2ccccc2C2=NC(CC(=O)NC3CCCCC3)C(=O)N12)NCc1ccco1 (stereo not given) |  | 12.6 µM [falling, partial curve] |
| CC(C)c1ccc(NC2=CC(=O)CC(C)(C)C2)cc1 |  | 17.8 µM [rising, partial curve] |
| N#CC(c1ccc(Cl)cc1)c1ccc(Cl)nn1 (stereo not given) |  | 20.6 µM [falling, single point] |
| CN(C(=O)c1cc2ccccc2cc1O)C1CCCCC1 |  | 0.355 µM [rising, full curve, poor fit] |
| CSc1cccc(NC(=O)Nc2ccccc2)c1 |  | 7.31 µM [falling, partial curve, poor fit] |
| C=CCNC(=O)/C=C/c1ccc(C(C)C)cc1 |  | 7.31 µM [rising, partial curve] |
| O=C(N/N=C/c1cccc([N+](=O)[O-])c1)C1CC1c1ccccc1 (stereo not given) |  | 6.51 µM [rising, full curve, poor fit] |
| CCN(CC(=O)Nc1ccc(NC(C)=O)cc1)C(=O)CCCOc1ccc(C(C)(C)C)cc1 |  | 29.1 µM [falling, single point] |
| O=S(=O)(NCCc1cn2ccccc2n1)c1ccc2c(c1)OCCO2 |  | 29.1 µM [rising, single point] |
| COCc1cc(SC2CCCCC2)nc(C)n1 |  | 12.6 µM [rising, partial curve] |
| O=c1oc2ccccc2c(NCc2cccc(F)c2)c1[N+](=O)[O-] |  | 18.4 µM [falling, partial curve] |
| O=C(O)c1cc(-c2ccco2)nc2ccc(Br)cc12 |  | 29.1 µM [falling, single point] and 1.03 µM [falling, partial curve, poor fit] |
| O=C(O)COn1c(-c2ccc(Cl)cc2)nc2ccc(Cl)cc21 |  | 10 µM [falling, partial curve, poor fit] |
| Cc1ccccc1NS(=O)(=O)c1cccc(C(=O)Nc2cccc(C(=O)O)c2)c1 |  | 5.62 µM [rising, full curve, poor fit] |
| C/C(CC(=O)Nc1cc(C)ccn1)=N\NC(=O)c1cccc(C)c1 |  | 11.2 µM [falling, partial curve, poor fit] |
| NC(=O)C1CCN(Cc2nc3ccccc3c(=O)[nH]2)CC1 |  | 0.00411 µM [rising, full curve, poor fit] |
| CCN(C(=O)COC(=O)c1cc(C)n(-c2ccc(F)cc2)c1C)C1CCS(=O)(=O)C1 (stereo not given) |  | 2.31 µM [falling, full curve, poor fit] |
| CC1CCC/C(=C\Nc2ccc(C(=O)O)c(O)c2)C1=O (stereo not given) |  | 20 µM [falling, partial curve, poor fit] |

| Structure (SMILES) | AC50 (measured here: IkBa-CBG green luminescence) | AC50 [1] |
| --- | --- | --- |
| CCCCn1c(N)c(N(CCOC)C(=O)c2cccc(OCc3ccccc3)c2)c(=O)[nH]c1=O |  | 0.92 µM [falling, full curve] |
| CCOC(=O)c1csc(NC(=O)c2ccccc2)n1 |  | 6.51 µM [falling, full curve, poor fit] |
| COc1ccc(-c2noc(CSc3nnc(Cc4ccccc4)n3-c3ccc(Cl)cc3)n2)cc1 |  | 4.61 µM [falling, partial curve, poor fit] |
| O=C(Nc1nccs1)c1cc(Cl)nc2ccccc12 |  | 17.8 µM [falling, partial curve, poor fit] |
| COc1cccc(/C=C2\SC(=S)N(CCCC(=O)N3CCCCC3CCO)C2=O)c1 (stereo not given) |  | 0.708 µM [falling, full curve] |
| COc1cccc(C(=O)O/N=C(\N)c2ccccn2)c1 |  | 2.82 µM [falling, full curve, poor fit] |
| CCN(CC)CCNC(=O)NC1CCCCC1 |  | 25.9 µM [rising, single point] |
| O=C(NCc1cccnc1)/C(=C\c1ccc(-c2ccc(Cl)c(Cl)c2)o1)S(=O)(=O)c1ccccc1 |  | 6.51 µM [falling, partial curve] |
| COc1cccc(C2=NOC(C(=O)Nc3cc(C)nn3-c3ccccc3)C2)c1OC (stereo not given) |  | 16.4 µM [falling, partial curve] |
| O=C(CSc1nc2ncc(Br)cc2[nH]1)c1cccc([N+](=O)[O-])c1 |  | 8.2 µM [falling, partial curve] |
| CC(=O)Oc1ccc(/C=N/NS(=O)(=O)c2ccc(C)cc2)c(OC(C)=O)c1 |  | 8.91 µM [falling, partial curve] |
| COc1ccc(NC(=O)NCCCN2CCCC2=O)cc1 |  | 29.1 µM [rising, partial curve, poor fit] |
| COc1ccc2[nH]cc(C(O)CN3CCC(C(N)=O)CC3)c2c1 (stereo not given) |  | 35.5 µM [falling, single point] |
| Cc1ccc(S(=O)(=O)n2nc(OC(=O)c3ccccc3C)cc2N)cc1 |  | 14.1 µM [falling, single point] |
| O=C(NCCCO)c1cc([N+](=O)[O-])cc2c1C=Cc1ccccc1O2 |  | 7.08 µM [rising, partial curve] |
| CC(=O)Nc1ccc(S(=O)(=O)NCC2CCC(C(=O)NC(C)c3ccc4c(c3)OCCO4)CC2)cc1 (stereo not given) |  | 17.8 µM [rising, single point] |
| O=C1OC(Nc2ccc(Br)cc2F)c2ccccc21 (stereo not given) |  | 0.891 µM [falling, full curve, poor fit] |
| COC(=O)CSc1n[nH]c(-c2ccncc2)n1 |  | 18.4 µM [falling, single point] |
| COCCNC(=O)C(=O)NCC(c1ccc2c(c1)OCO2)N1CCN(c2ccc(F)cc2)CC1 (stereo not given) |  | 0.631 µM [falling, partial curve, poor fit] |
| COc1ccc(C(O)Cc2nc3ccccc3n2C)cc1OC (stereo not given) |  | 29.1 µM [rising, single point] |
| CC(OC(=O)Cc1c[nH]c2ccccc12)C(=O)N(C)c1ccccc1 (stereo not given) |  | 18.4 µM [falling, partial curve] |

Ordered by count of non-hydrogen atoms (falling): some entries from above

| Structure (SMILES) | AC50 (measured here: IkBa-CBG green luminescence) | AC50 [1] |
| --- | --- | --- |
| COCCNC(=O)C(=O)NCC(c1ccc2c(c1)OCO2)N1CCN(c2ccc(F)cc2)CC1 (stereo not given) |  | 0.631 µM [falling, partial curve, poor fit] |
| CC(OC(=O)Cc1c[nH]c2ccccc12)C(=O)N(C)c1ccccc1 (stereo not given) |  | 18.4 µM [falling, partial curve] |
| O=C1OC(Nc2ccc(Br)cc2F)c2ccccc21 (stereo not given) |  | 0.891 µM [falling, full curve, poor fit] |
